According to patent US20020055130A1, “Method and product for regulating apoptosis” (National Jewish Center for Immunology and Respiratory …, priority 1997, published 2002):
No constants are given. Whether binding was seen depends on the method and setting. Binding calls can cover weak binding; strength is not graded here. Tags and fused reporters may be left off the sequences shown.

Amino acid sequences for entries named in this document (tags omitted). A change or cut given only in a name is not applied to a line headed by its entry.
UniProt P53349: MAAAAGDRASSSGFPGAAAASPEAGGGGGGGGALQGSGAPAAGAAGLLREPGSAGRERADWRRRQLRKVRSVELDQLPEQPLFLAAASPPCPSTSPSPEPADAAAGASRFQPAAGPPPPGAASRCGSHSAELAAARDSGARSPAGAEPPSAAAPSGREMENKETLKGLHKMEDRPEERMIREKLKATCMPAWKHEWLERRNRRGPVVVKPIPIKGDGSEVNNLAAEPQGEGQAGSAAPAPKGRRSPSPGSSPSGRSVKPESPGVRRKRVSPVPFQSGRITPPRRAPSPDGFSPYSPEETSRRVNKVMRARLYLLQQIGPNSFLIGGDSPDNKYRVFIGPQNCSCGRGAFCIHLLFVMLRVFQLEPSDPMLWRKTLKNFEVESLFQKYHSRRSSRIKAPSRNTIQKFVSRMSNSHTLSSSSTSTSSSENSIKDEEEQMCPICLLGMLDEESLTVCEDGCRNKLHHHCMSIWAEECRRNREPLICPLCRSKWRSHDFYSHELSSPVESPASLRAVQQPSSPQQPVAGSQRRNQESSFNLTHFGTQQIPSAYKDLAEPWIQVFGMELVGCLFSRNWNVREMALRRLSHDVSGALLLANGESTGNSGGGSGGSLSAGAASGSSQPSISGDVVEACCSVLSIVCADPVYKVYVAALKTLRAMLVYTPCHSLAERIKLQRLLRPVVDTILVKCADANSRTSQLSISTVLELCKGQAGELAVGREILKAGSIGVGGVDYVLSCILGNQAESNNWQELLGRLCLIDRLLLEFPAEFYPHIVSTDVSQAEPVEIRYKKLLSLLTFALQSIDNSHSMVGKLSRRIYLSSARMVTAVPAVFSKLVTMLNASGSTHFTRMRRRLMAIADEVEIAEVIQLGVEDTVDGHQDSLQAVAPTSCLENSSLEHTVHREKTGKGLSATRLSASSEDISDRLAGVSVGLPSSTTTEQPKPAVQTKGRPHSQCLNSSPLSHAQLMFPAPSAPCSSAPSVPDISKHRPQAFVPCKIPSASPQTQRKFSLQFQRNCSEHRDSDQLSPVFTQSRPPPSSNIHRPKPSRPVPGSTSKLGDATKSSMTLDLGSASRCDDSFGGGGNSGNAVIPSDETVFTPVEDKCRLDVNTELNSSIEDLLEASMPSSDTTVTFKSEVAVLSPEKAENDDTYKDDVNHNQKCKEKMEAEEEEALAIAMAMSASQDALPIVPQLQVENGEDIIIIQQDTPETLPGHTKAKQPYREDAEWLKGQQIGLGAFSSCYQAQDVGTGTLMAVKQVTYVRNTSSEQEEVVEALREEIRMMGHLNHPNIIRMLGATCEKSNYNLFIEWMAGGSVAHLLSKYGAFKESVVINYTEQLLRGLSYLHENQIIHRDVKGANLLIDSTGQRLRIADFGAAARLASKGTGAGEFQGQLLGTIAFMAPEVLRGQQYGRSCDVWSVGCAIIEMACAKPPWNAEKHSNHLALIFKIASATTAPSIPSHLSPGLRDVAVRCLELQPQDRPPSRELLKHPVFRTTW

Substrate: COS cell-expressed MEKK1 (holoMEKK1) (UniProt P53349)
Assay: GST fusion protein against COS cell-expressed protein

B1: GST fusion protein of the T cell 14-3-3 isoform (protein, UniProt P27348 1-245, looked up, not shown: a dimerising Fc or GST)
chain: MEKTELIQKAKLAEQAERYDDMATCMKAVTEQGAELSNEERNLLSVAYKNVVGGRRSAWRVISSIEQKTDTSDKKLQLIKDYREKVESELRSICTTVLELLDKYLIANATNPESKVFYLKMKGDYFRYLAEVACGDDRKQTIDNSQGAYQEAFDISKKEMQPTHPIRLGLALNFSVFYYEILNNPELACTLAKTAFDEAIAELDTLNEDSYKDSTLIMQLLRDNLTLWTSDSAGEECDAAEGAEN
B1 was tested, and the binding was “binds”.
